Results as given in publication PMC7556057.
Results are given in words; binding and its absence hold for the method and conditions named. Binding seen in cells or lysates may run through a third protein. Some results given as binding are weak or reduced against the parent protein; the word gives no strength. Where a sequence is shown, tags or fusion partners need not be part of it. One block for each molecule: values may come before it.

Amino acid sequences for entries named in this document (tags omitted).
UniProt P21796: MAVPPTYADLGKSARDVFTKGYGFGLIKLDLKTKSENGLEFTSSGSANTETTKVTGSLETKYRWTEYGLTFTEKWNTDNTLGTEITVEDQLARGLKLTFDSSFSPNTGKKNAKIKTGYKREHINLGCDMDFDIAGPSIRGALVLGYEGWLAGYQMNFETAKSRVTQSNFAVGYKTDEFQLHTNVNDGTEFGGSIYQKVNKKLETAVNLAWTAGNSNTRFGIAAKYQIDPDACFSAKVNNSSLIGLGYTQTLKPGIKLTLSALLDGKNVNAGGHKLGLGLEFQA

Assays:
[1] = biological target: T1, tubulin polymerization-promoting protein family member 3 (TPPP3), FLAG-tagged (UniProt Q9BW30); experiment: co-IP; lysates of HUVECs transfected with TPPP3-FLAG or VDAC1-HA, IP with antibodies to FLAG or HA (the methods say TPPP3 or VDAC1 antibody) and protein A/G agarose beads overnight at 4°C; Western blot for TPPP3 or VDAC1; irrelevant IgG as control
T1 sequence: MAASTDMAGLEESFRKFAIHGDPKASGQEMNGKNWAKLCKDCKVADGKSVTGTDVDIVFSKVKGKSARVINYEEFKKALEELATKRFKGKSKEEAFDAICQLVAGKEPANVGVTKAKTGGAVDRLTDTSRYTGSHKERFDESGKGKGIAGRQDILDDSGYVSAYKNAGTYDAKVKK

[2] = biological target: voltage-dependent anion channel 1 (VDAC1), HA-tagged (UniProt P21796); experiment: as above

- binding [1]: binds
Molecule: voltage-dependent anion channel 1 (VDAC1), endogenous (from UniProt P21796 1-283)

- binding [2]: binds
B1: tubulin polymerization-promoting protein family member 3 (TPPP3) in HUVECs transfected with VDAC1-HA (protein, UniProt Q9BW30 1-176)
chain: T1 sequence
